In patent US20060110800A1 (ZymoGenetics, published 2006):
These are yes or no findings as the source states them, for the method shown. Some results given as binding are weak or reduced against the parent protein; the word gives no strength.

The chains behind the UniProt entries cited, without tags or fusion partners. Residues count along the entry.
UniProt P35225, residues 35-146: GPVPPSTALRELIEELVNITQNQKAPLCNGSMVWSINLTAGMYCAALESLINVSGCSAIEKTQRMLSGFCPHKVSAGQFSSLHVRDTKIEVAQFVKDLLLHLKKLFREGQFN

Columns and labels:
[1] = target: T1, human Zcytor2 receptor expressed on transfected BHK cells (human) (UniProt Q14627); assay: 125I-IL-13 binding to transfected BHK cells with or without cold IL-13, gamma counting
T1 sequence: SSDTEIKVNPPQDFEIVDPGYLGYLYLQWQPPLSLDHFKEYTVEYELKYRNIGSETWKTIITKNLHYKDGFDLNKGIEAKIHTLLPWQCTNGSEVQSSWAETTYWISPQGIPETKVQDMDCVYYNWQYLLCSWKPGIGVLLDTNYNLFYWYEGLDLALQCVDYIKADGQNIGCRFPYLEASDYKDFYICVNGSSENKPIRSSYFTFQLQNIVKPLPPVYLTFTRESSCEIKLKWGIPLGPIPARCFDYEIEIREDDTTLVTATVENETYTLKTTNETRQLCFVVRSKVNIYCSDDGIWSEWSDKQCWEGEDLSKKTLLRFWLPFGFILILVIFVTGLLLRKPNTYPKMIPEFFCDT

[2] = target: T1, human Zcytor2 receptor expressed on transfected BHK cells (human); assay: competition of unlabeled IL-13 against 125I-IL-13 on Zcytor2-transfected BHK cells
[3] = target: T1, human Zcytor2 receptor expressed on transfected BHK cells (human); assay: unlabeled IL-13 competing with 125I-IL-13 on BHK/Zcytor2 cells

**Q.** For “125I-IL-13 (from UniProt P35225 35-146) (ligand)”, which binding [1] is on record?
**A.** The binding was “binds”.

**Q.** With “unlabeled IL-13 (from UniProt P35225 35-146) (ligand)” as the substance, how does the binding [2] read?
**A.** The binding was “binds”.

**Q.** And the binding [3]?
**A.** Its binding is “binds”.
